Measurements taken from PMC10799014.
Results are given in words; binding and its absence hold for the method and conditions named. Binding seen in cells or lysates may run through a third protein. Some binding calls cover weakened binding; strength is not graded here. Where a sequence is shown, tags or fusion partners need not be part of it.

Protein sequences, listed by entry. Tags and fused reporters are not part of them.
UniProt P49023: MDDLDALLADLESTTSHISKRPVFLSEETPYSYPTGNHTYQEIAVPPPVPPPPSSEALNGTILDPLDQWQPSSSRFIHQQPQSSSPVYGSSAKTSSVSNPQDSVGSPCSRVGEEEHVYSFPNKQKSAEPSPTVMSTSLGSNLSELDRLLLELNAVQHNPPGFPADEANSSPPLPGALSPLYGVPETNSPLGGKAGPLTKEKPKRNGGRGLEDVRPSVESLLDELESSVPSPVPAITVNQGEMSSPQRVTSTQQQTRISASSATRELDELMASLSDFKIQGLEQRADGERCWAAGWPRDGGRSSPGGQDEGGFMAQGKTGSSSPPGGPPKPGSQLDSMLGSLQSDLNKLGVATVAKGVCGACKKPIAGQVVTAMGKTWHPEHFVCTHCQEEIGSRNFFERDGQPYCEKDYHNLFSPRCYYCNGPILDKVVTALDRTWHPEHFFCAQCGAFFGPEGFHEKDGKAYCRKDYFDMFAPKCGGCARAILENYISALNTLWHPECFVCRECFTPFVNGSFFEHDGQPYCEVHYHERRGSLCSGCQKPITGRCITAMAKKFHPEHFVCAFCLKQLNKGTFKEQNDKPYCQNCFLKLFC

Target: paxillin, Venus-fragment fusion for BiFC (UniProt P49023)
Assay: split reporter; BiFC with Venus fragments V1 and V2 in HeLa cells, 200 ng of each plasmid, fixed after 24 h, confocal microscopy with uniform laser settings

binding: binds
B1: rapsyn, Venus-fragment fusion for BiFC (protein, UniProt Q13702 1-412)
chain: MGQDQTKQQIEKGLQLYQSNQTEKALQVWTKVLEKSSDLMGRFRVLGCLVTAHSEMGRYKEMLKFAVVQIDTARELEDADFLLESYLNLARSNEKLCEFHKTISYCKTCLGLPGTRAGAQLGGQVSLSMGNAFLGLSVFQKALESFEKALRYAHNNDDAMLECRVCCSLGSFYAQVKDYEKALFFPCKAAELVNNYGKGWSLKYRAMSQYHMAVAYRLLGRLGSAMECCEESMKIALQHGDRPLQALCLLCFADIHRSRGDLETAFPRYDSAMSIMTEIGNRLGQVQALLGVAKCWVARKALDKALDAIERAQDLAEEVGNKLSQLKLHCLSESIYRSKGLQRELRAHVVRFHECVEETELYCGLCGESIGEKNSRLQALPCSHIFHLRCLQNNGTRSCPNCRRSSMKPGFV
